Literature values in patent US20050106635A1, “Compositions and methods for regulating thyroid hormone metabolism and cholesterol and lipid metabolism via the nuclear receptor car” (priority 2002, published 2005).
At least one structure is not confirmed: it was looked up by name or label, or the drawing left a doubt.

System: T4
Conditions: rats; TCPOBOP at high doses; cited from earlier work

CCC1(c2ccccc2)C(=O)NC(=O)NC1=O [phenobarbital]
circulating levels of T4: decreased circulating levels of T4
glucuronidation of T4: increase in glucuronidation of T4
